Results published in PubChem BioAssay AID493014 (National Center for Advancing Translational Sciences (NCATS), 2011).
The whole screen tested about 340,000 compounds, of which about 170 (0.05%) were called active. Inconclusive means that the source gave no clear call. Such entries were picked first, then a sample of the others. Calls come from the whole dose curve; as a rule, active = well fitted inhibition curve with a large enough effect in the signal ratio, with a control signal flat (not every such curve was filed as active); inconclusive = small, poorly fitted or top-dose-only effect, or effect the other way, or a change in a side signal; inactive = flat fitted curve, though single readings scatter; the % refers to the signal ratio. Where the call is inconclusive, the potency comes from a doubtful curve fit.

experiment: qHTS Assay to Find Inhibitors of Chronic Active B-Cell Receptor Signaling; settings: ABC-DLBCL IkBa-CBG/CBR reporter, luminescence ratio (green luciferase fused to IkBa over red control in TMD8 lymphoma cells), 4 h; activity change, negative = inhibition: at 46.1 µM (top of the series);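 for activity change, negative = inhibition: plate controls were basal doxycycline-induced cells for no effect and cells given 10 µM MG132 for full effect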
How it was run: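 Compounds up to 46 uM were incubated four hours with TMD8 cells whose green CBG68 luciferase is fused to IkappaBalpha; red CBR luminescence normalised the signal, and concentration-effect curves were fitted to fusion, red and ratio data.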
Potency is the fitted concentration of half-maximal effect.

Structure (SMILES)	activity change, negative = inhibition	Potency
O=C(c1cc(=O)[nH]c2ccccc12)N1CCN(c2cccc(C(F)(F)F)c2)CC1	inconclusive: -10.2%	–
COc1ccc(N(CC(=O)Nc2ccccc2C)S(=O)(=O)c2c(C)[nH]c(=O)[nH]c2=O)cc1	inactive	–
O/N=C1\CCCc2oc3c(c21)CCCC3	–	inconclusive: 7.31 µM [falling, partial curve, poor fit]
COc1ccc(NC(=O)CSc2nnc(-c3ccccc3C)n2N)cc1	inconclusive: -0.695%	–
Cc1ccn2c(=O)nc(SCC(=O)NCc3ccccc3Cl)nc2c1	–	inconclusive: 29.1 µM [falling, single point]
O=C(Nc1nc(=O)n(C(=O)c2cccc(C(F)(F)F)c2)s1)c1ccccc1	–	inconclusive: 35.5 µM [rising, partial curve, poor fit]
COc1ccc(-c2cn(Cc3ccc(C(N)=O)cc3)c(-c3ccncc3)n2)cc1	–	inconclusive: 18.4 µM [falling, partial curve, poor fit]
O=C(N[C@@H](Cc1ccccc1)C(=O)OCC(=O)N1CCOCC1)c1cccs1	inconclusive: -0.427%	–
Cc1cccc2cc(CN(Cc3ccco3)C(c3nnnn3CCc3ccccc3)C(C)C)c(=O)[nH]c12 (stereo unspecified)	–	inconclusive: 8.91 µM [falling, partial curve]
CCC(=O)Nc1nc2ccc(S(C)(=O)=O)cc2s1	inconclusive: 9.86%	–
Cc1c(NC=C(C#N)C#N)c(=O)n(-c2ccccc2)n1C	inactive	–
Cn1cnnc1SCC(=O)NC1CCCN(Cc2ccc(Cl)cc2)C1 (stereo unspecified)	inconclusive: 9.17%	–
Cc1cc(=O)n2nc(N3CCCC(C(=O)N4CCN(c5ccccc5)CC4)C3)sc2n1 (stereo unspecified)	inconclusive: -0.328%	–
CCc1nnc(NC(=O)CSc2nnc(-c3ccncc3)n2C)s1	inconclusive: 17.3%	–
O=S(=O)(Nc1ccccc1O)c1ccc(Cl)nc1	inactive	–
CN1C(=O)c2cccc(NC(=O)Cc3ccccc3)c2C1=O	inconclusive: 13.8%	–
CC(C)CNC(=S)NNC(=O)c1ccco1	inconclusive: 17.9%	–
COc1cccc(NC(=O)c2ccc3snnc3c2)c1	–	inconclusive: 2.59 µM [falling, partial curve, poor fit]
CCC(=NC(CC)CO)C1=C(O)CC(C)(C)CC1=O (stereo unspecified)	inconclusive: 6.08%	–
CC(C(=O)Nc1ccc2c(c1)OCCO2)n1nnc(-c2ccccc2)n1 (stereo unspecified)	inactive	–
CCN(C(=S)NC(=O)CCc1ccccc1)c1ccccc1	inconclusive: 3.63%	–
COC(=O)NC(=S)Nc1ccc(Oc2ccc(Cl)cc2)c(Cl)c1	inactive	–
COc1ccc(NC(=O)Nc2cccc(C(F)(F)F)c2)cn1	inactive	–
CC(=O)Nc1ccccc1NS(=O)(=O)c1ccc(Cl)cc1	inconclusive: -0.28%	–
COCCCNC(=O)CN(c1cc(Cl)ccc1OC)S(=O)(=O)c1ccc(C)c([N+](=O)[O-])c1	–	inconclusive: 12.6 µM [falling, partial curve, poor fit]
CCOC(=O)c1ccc(COC(=O)CCc2nc3ccccc3[nH]c2=O)o1	–	inconclusive: 29.1 µM [falling, single point]

Structure (SMILES)	activity change, negative = inhibition	Potency
Oc1c(CN2CCOCC2)cc(COCc2ccccc2)c2cccnc12	–	inconclusive: 4.11 µM [falling, full curve]
COc1ccc(NS(=O)(=O)c2cc(NC(=O)c3ccco3)ccc2N2CCCCC2)cc1	inactive	–
COc1ccccc1Oc1ccc(Oc2ccccc2OC)cc1	inconclusive: -11.5%	–
CN(C)/C=C/C(=O)c1ccc(Br)cc1	inconclusive: -0.703%	–
CCCOc1ccc(C(=O)NC(=S)Nc2nc(C)c(C(=O)N(C)C)s2)cc1	inconclusive: 13.9%	–
Cc1ccc(NC2=CC(=O)CC(c3ccco3)C2)c(N)c1 (stereo unspecified)	inactive	–
Cc1ccsc1C(=O)OCC(=O)Nc1cccc(S(=O)(=O)N2CCOCC2)c1	–	inconclusive: 10.3 µM [falling, partial curve]
CC1CN(CC(=O)Nc2ccc(Br)cn2)CC(C)O1 (stereo unspecified)	–	inconclusive: 25.1 µM [rising, partial curve, poor fit]
Cc1cc(C)c2nc(-c3ccccn3)cc(C(=O)Nc3ccc(S(=O)(=O)Nc4cc(C)on4)cc3)c2c1	inconclusive: 26%	–
Nc1ccc2oc(-c3cc(Br)ccc3Cl)nc2c1	–	inconclusive: 11.2 µM [falling, partial curve, poor fit]
CC(=O)Nc1ccc(NC(=O)C(C)Sc2n[nH]c(-c3ccc(C)cc3)n2)cc1 (stereo unspecified)	inconclusive: 4.81%	–
CCOC(=O)/C(N=Nc1c(C)n(C)n(-c2ccccc2)c1=O)=C(/O)c1ccccc1	inactive	–
O=C(Nc1ccc(F)cc1F)c1ccc2c(=O)n3c(nc2c1)CCC3	–	inconclusive: 23.1 µM [falling, partial curve]
CCOC(=O)C1CCCN(C(=O)c2cc3c(C)nc4ccccc4c3o2)C1 (stereo unspecified)	inconclusive: 7.06%	–
Nc1cccc2c1C(=O)N(CCOc1ccccc1F)C2=O	–	inconclusive: 31.6 µM [falling, single point]
O=C(COc1ncnc2scc(-c3ccc(F)cc3)c12)NCc1ccco1	–	inconclusive: 0.0058 µM [rising, full curve, poor fit]
O=C(COc1ccc(F)cc1)N(Cc1ccc(Cl)cc1)C1CCS(=O)(=O)C1 (stereo unspecified)	–	inconclusive: 15.8 µM [falling, partial curve, poor fit]
CCc1ccc(OCC(=O)NC(C)(C)C)cc1	inconclusive: 6.57%	–
Cn1nc(CC(=O)NCc2cccc3ccccc23)c2ccccc2c1=O	inconclusive: -7.49%	–
CCOc1ccc(NC(=O)CCCc2cc(-c3ccc(OCC)cc3)on2)cc1	inconclusive: 0.433%	–
COc1ccc(OC)c2c1sc(=NC(=O)c1cccc(N3C(=O)CCC3=O)c1)n2C	inconclusive: -0.832%	–
CC1=CC(C)(C)n2c(O)c(N=N)c3c(C)ccc1c32	inconclusive: -2.81%	–
Cc1ccc2cc(C=O)c(N(C)C)nc2c1	inconclusive: -1.52%	–
CC(=O)N1CCN(CC(=O)Nc2sccc2C#N)CC1	inactive	–
CCOC(=O)C1CCN(c2ncnc3c2[nH]c2cccc(OC)c23)CC1	inactive	–

Arranged by formula weight (falling): some entries from above.
Structure (SMILES)	activity change, negative = inhibition	Potency
O=C(COc1ncnc2scc(-c3ccc(F)cc3)c12)NCc1ccco1	–	inconclusive: 0.0058 µM [rising, full curve, poor fit]
Nc1ccc2oc(-c3cc(Br)ccc3Cl)nc2c1	–	inconclusive: 11.2 µM [falling, partial curve, poor fit]
COc1ccccc1Oc1ccc(Oc2ccccc2OC)cc1	inconclusive: -11.5%	–
